# Laboratory results as given in PubChem BioAssay AID1259354 (Paczesny and Yang Labs, IUPUI and University of Michigan, 2018).
# The chains behind the UniProt entries cited, without tags or fusion partners. Where a name states a change or a piece, a line headed by the entry shows the natural chain unless it says otherwise.
# UniProt Q01638: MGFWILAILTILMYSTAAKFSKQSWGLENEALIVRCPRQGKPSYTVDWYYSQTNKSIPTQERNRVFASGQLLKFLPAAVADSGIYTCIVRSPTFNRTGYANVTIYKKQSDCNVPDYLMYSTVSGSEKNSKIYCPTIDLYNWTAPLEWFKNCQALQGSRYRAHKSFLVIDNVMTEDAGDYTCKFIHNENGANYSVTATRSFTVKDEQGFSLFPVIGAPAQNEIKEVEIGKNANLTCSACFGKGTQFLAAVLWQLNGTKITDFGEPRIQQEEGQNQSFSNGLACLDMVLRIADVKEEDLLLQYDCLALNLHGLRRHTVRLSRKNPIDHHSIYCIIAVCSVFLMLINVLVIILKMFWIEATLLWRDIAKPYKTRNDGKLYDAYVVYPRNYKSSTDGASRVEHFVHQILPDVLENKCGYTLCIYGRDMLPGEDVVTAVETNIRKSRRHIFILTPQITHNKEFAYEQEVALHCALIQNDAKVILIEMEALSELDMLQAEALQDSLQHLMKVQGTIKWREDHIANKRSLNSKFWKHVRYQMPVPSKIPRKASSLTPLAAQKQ
# The campaign covered roughly 78,000 compounds. About 1,800 (2.3%) were called active. This list was built around the results that the source calls inconclusive (neither active nor inactive); the mix of calls is not that of the screen. No stated cut-off is given here; in the data, active means inhibition above about 30%; inconclusive means mostly about 10% to 28%; inactive means weaker than that.
# Target: Interleukin-1 receptor-like 1 (Homo sapiens) (UniProt Q01638)
# Assay: blocks human ST2 binding to IL-33, primary screen, biochemical, AlphaLISA (AID 1259354)
# Conditions: AlphaLISA ST2-Fc/biotin-IL-33 interaction, 1 h; at 17 µM, hits give high values
row,Compound,inhibition
1,C=CCNc1ccccc1C(=O)NCc1nc(C)c2c(n1)CCCC2,inconclusive: 16%
2,CC(C)CC1CCCCC1OC(=O)CN1CCCCC1 (stereo not given),inconclusive: 17%
3,COc1ccccc1-n1cc(CN2CCC3(CC2)CC3C(=O)NCCC2=CCCCC2)cn1 (stereo not given),inconclusive: 18%
4,CCN(Cc1ccccc1)C(=O)c1cc2c(=O)n3cccc(C)c3nc2n1C,inconclusive: 19%
5,Cn1cc(CN(Cc2ccc(-n3ccnc3)cc2)C2CC2)cn1,inconclusive: 10%
6,Oc1cccc(Oc2cccc(Oc3ccccc3)c2)c1,inactive
7,NC(=O)c1cnc2n1CCN(C(=O)c1cnn3ccccc13)C2,inconclusive: 12%
8,CCOC(=O)C1(CCCc2ccccc2)CCCN(C(=O)CN2CCOC2=O)C1 (stereo not given),inactive
9,Cc1cc(N2CCCC2)nc(N2CCN(S(=O)(=O)c3cccc(Cl)c3)CC2)n1,inconclusive: 11%
10,Fc1ccc(N2CCN(Cc3cccs3)CC2)cc1,inconclusive: 19%
11,CCOc1ccc(S(=O)(=O)N2CCN(c3nc(C)cc(N4CCN(C)CC4)n3)CC2)cc1,inconclusive: 10%
12,Clc1ccc(Cn2nnc3ccccc32)c(Cl)c1,inactive
13,Cc1ccc(NC(=O)N2Cc3[nH]cnc3C[C@H]2c2nc(-c3ccncc3)no2)cc1,inconclusive: 16%
14,CCOC(=O)N1CCC(NCc2cc3ccc(Cl)cc3n(CCOc3ccccc3)c2=O)CC1,inconclusive: 19%
15,O=C(OCCN1CCOCC1)C1(c2ccccc2)CCCCC1,inconclusive: 16%
16,CCOc1ccc(S(=O)(=O)N=C2C=C(Nc3ccc(O)cc3)C(=O)c3ccccc32)cc1,active: 84%
17,CC(C)(C)c1ccc(SCCc2ccccn2)cc1,inconclusive: 13%
18,N#CC1=C(N)OC2=C(C(=O)CCC2)C1c1cccc(Oc2ccc(Cl)cc2)c1 (stereo not given),inactive
19,Cc1cc(C)c2c(=O)[nH]c(SCC(=O)Nc3ccc(N(C)C)cc3)nc2n1,inconclusive: 27%
20,Cc1ccsc1[C@@H]1CCN(Cc2cc(CC(C)C)n[nH]2)C[C@H]1O,inconclusive: 18%

row,Compound,inhibition
1,Cc1cc(-c2ccc(NS(C)(=O)=O)c(C)c2)ccc1NS(C)(=O)=O,inconclusive: 22%
2,Cn1nc(-c2ccc(Cl)cc2)c2cc(C(=O)NCc3ccccn3)sc21,inconclusive: 14%
3,CCOC(=O)C1(Cc2ccc(OC)cc2)CCN(C(=O)c2ccc(N3CCCC3)cc2)CC1,inconclusive: 26%
4,CCCCc1nc(OCC(=O)c2ccccc2)c(C#N)c2c1COC(C)(C)C2,inconclusive: 10%
5,CCOC(=O)N1CCC(NC(=O)C2CCC(=O)N(Cc3ccccc3F)C2)CC1 (stereo not given),inconclusive: 14%
6,Cn1c(=O)c(NC2CCCCC2)c2c3c(cccc31)C(=O)c1ccccc1-2,inconclusive: 15%
7,Cc1c(S(=O)(=O)NCc2nc3cccnc3n2Cc2ccccc2)cnn1C(F)F,inconclusive: 15%
8,Cc1noc(C)c1NC(=O)N1CCCC(N2CCCC2=O)C1 (stereo not given),inconclusive: 16%
9,N#CC(OC(=O)c1ccccc1)c1ccccc1 (stereo not given),inconclusive: 10%
10,Cc1c(C)n(CC(O)CNc2ccc(Br)cc2)c2ccccc12 (stereo not given),active: 31%
11,O=C(NCc1ccccc1F)c1ccc(N2CCC(NCc3nc4ccccc4s3)CC2)cc1,inconclusive: 10%
12,CC(=O)Nc1ccc(-c2ccc(C(C)N3CCCCC3)cc2)cn1 (stereo not given),inconclusive: 10%
13,Cc1ccc(C(=O)NCc2cccnc2)cc1[N+](=O)[O-],inactive
14,COc1ccccc1-n1c(SCC(=O)Nc2ccc(C)cc2C)nc2c(c1=O)SCC2,inconclusive: 17%
15,COc1ccc(CC2CN(Cc3cnn(-c4ccccc4)c3)CCO2)cc1 (stereo not given),inactive
16,Cc1cc(N2CCNCC2)nc(-c2ccccc2O)n1,inconclusive: 11%
17,COCCCNc1c2c3c(cccc3n(C)c1=O)C(=O)c1ccccc1-2,inconclusive: 23%
18,O=[N+]([O-])c1ccc(-n2ccc3ccccc32)cc1,active: 32%
19,O=C(C[C@@H]1O[C@H](CNC(=O)Nc2cccc(F)c2)[C@@H](O)[C@H]1O)NC1CC1,inactive
20,COCCN(CC1CCN(Cc2ccccc2F)CC1)C(=O)c1cnc(C)cn1,inactive

row,Compound,inhibition
1,Cc1ccc(C(=O)Nc2ccc(NC(=O)c3ccco3)cc2)c(Cl)c1,inactive
2,COc1cccc(CN2CC(C(=O)NCCn3ccc(C)n3)CCC2=O)c1 (stereo not given),inconclusive: 10%
3,O=C(Cc1ccc([N+](=O)[O-])cc1)Nc1cccc(Cl)c1,inconclusive: 18%
4,CCN(CC)CCn1c(-c2ccccc2)csc1=Nc1ccccc1,inconclusive: 11%
5,O=C(NC1CCCCC1)N[C@H]1[C@H](O)[C@@H](N2CCCC2)[C@@H]2OC[C@H]1O2,inconclusive: 15%
6,CS(=O)(=O)c1ccc(CN2C[C@H](O)C[C@H]2c2nc(CS(=O)(=O)c3ccc(F)cc3)no2)cc1,inconclusive: 22%
7,Cc1cc(Nc2ccccc2)nc(Nc2ccc(NC(=O)c3ccc(-c4ccccc4)cc3)cc2)n1,inconclusive: 19%
8,O=C(CC1COCCN1)NCc1cn2ccsc2n1 (stereo not given),inconclusive: 27%
9,Cc1cccn2c(=O)c3cc(C(=O)NCc4ccc5c(c4)OCO5)n(C)c3nc12,inactive
10,CC1=NN(c2ccccc2)C(=O)/C1=C\N(O)Cc1ccccc1,inconclusive: 10%
11,COCCNC(=O)CSc1c2c(nc3ccc(Cl)cc13)CCCC2,inconclusive: 20%
12,CC1(C)CC2CC(C)(CN2C(=O)c2cc(-c3ccco3)on2)C1 (stereo not given),inactive
13,CCOC(=O)C1(Cc2cccc(Cl)c2)CCCN(C(=O)c2cc(C(F)(F)F)[nH]n2)C1 (stereo not given),inconclusive: 26%
14,Cc1cccc(-c2nc(N3CCCC3)c3ccccc3n2)c1,inactive
15,CNC(=O)c1ccc(Cn2ccnc2C2CCOC(C)(C)C2)cc1 (stereo not given),inconclusive: 15%
16,N#CC1=C(N)OC2=C(C(=O)CC(c3ccccc3)C2)C1c1ccc(F)cc1F (stereo not given),inactive
17,Cc1ccc(C)n1CCN1CCN(CC(=O)Nc2ccc(F)cc2F)CC1,inactive
18,O=C1Nc2ccc(Br)cc2/C1=C/c1ccsc1,active: 39%
19,Cc1ccc(OC2(C(=O)NC(C)Cc3ccncc3)CCNCC2)cc1 (stereo not given),inconclusive: 10%
20,Cc1ccc(/C=C2/Sc3ccccc3N(CC(=O)NCc3cccnc3)C2=O)cc1,inconclusive: 22%

# Structural class: the compounds so far with fluorine (ten)
row,Compound,inhibition
10,Fc1ccc(N2CCN(Cc3cccs3)CC2)cc1,inconclusive: 19%
5,CCOC(=O)N1CCC(NC(=O)C2CCC(=O)N(Cc3ccccc3F)C2)CC1 (stereo not given),inconclusive: 14%
7,Cc1c(S(=O)(=O)NCc2nc3cccnc3n2Cc2ccccc2)cnn1C(F)F,inconclusive: 15%
11,O=C(NCc1ccccc1F)c1ccc(N2CCC(NCc3nc4ccccc4s3)CC2)cc1,inconclusive: 10%
19,O=C(C[C@@H]1O[C@H](CNC(=O)Nc2cccc(F)c2)[C@@H](O)[C@H]1O)NC1CC1,inactive
20,COCCN(CC1CCN(Cc2ccccc2F)CC1)C(=O)c1cnc(C)cn1,inactive
6,CS(=O)(=O)c1ccc(CN2C[C@H](O)C[C@H]2c2nc(CS(=O)(=O)c3ccc(F)cc3)no2)cc1,inconclusive: 22%
13,CCOC(=O)C1(Cc2cccc(Cl)c2)CCCN(C(=O)c2cc(C(F)(F)F)[nH]n2)C1 (stereo not given),inconclusive: 26%
16,N#CC1=C(N)OC2=C(C(=O)CC(c3ccccc3)C2)C1c1ccc(F)cc1F (stereo not given),inactive
17,Cc1ccc(C)n1CCN1CCN(CC(=O)Nc2ccc(F)cc2F)CC1,inactive
